Source: patent publication US20080167444A1, “Abc Transporter Inhibitor” (priority 2004, published 2008)
At least one compound was matched to its structure with a doubt left.

Protein sequences, listed by entry. Tags and fused reporters are not part of them. Lines headed by an entry give the natural chain unless they say otherwise; changes in a name come on top.
UniProt P33302: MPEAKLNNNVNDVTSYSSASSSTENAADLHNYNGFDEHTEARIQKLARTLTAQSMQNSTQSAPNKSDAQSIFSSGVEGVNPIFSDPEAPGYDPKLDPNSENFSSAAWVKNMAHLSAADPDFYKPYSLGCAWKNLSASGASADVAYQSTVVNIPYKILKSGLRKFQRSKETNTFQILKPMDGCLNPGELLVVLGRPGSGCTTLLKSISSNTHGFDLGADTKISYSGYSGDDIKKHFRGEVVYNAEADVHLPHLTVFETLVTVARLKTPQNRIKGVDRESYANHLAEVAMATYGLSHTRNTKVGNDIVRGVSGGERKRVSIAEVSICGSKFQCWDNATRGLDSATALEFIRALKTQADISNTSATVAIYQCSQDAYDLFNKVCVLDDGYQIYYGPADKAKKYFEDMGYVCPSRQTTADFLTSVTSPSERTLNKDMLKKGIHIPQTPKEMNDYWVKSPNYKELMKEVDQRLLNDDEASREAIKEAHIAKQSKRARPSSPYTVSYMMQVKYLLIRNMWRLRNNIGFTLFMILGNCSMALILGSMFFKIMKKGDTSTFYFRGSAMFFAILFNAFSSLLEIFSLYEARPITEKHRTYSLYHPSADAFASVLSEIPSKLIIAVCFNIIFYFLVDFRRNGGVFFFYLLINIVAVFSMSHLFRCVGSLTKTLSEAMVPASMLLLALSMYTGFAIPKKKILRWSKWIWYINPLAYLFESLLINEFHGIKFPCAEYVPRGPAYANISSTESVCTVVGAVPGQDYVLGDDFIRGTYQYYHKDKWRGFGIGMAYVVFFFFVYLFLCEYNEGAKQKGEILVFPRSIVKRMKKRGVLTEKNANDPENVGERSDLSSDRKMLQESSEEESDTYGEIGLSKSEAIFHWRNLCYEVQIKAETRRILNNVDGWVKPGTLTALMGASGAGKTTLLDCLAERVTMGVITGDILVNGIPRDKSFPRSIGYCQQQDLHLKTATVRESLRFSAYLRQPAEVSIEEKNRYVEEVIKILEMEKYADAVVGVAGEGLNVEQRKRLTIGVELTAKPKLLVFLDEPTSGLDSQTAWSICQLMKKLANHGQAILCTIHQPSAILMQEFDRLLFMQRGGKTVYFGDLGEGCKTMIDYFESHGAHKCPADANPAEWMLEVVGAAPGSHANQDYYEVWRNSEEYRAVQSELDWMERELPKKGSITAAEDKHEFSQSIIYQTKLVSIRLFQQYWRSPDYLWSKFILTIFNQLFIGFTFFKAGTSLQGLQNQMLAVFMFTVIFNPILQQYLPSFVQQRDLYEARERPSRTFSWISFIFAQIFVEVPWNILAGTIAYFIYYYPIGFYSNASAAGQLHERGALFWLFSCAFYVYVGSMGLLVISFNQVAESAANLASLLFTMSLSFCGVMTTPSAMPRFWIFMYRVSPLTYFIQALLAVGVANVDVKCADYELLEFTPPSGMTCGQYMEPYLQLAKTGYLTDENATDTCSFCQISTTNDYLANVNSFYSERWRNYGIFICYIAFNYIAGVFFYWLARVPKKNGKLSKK

Legend:
PDR5 gene = experiment: PDR5 transcription activity, β-galactosidase (lacZ) reporter downstream of Pdr5 promoter; assay type: cell-based, yeast; conditions: drug at final concentration 25 μg/mL, 8 hours; compared with no addition
Protocol: The effect of enniatin on expression of PDR5 gene was analyzed based on measurement of the PDR5 transcription activity using β-galactosidase gene as the reporter gene. Yeast, where had been introduced a recombinant plasmid obtained by fusion of β-galactosidase gene (lacZ) in the downstream of Pdr5 promoter, was subjected to shaking culture at 30° C. for 8 hours in 4 mL of YEPD medium, and a quantity of yeast corresponding to 1.0×10^6 cells was inoculated in 4 mL of the medium. At the same time, enniatin B, B1, D, enniatin mixture, or FK-506 was added to the final concentration of 25 μg/mL. After shaking culture at 30° C. for 8 hours, 1.0×10^7 yeast cells were collected. The cells were then suspended in 1 mL of Z buffer solution (60 mM disodium hydrogen phosphate, 40 mM sodium dihydrogen phosphate, 10 mM potassium chloride, 1 mM magnesium sulfate, 50 mM […], pH 7.0). The cell suspension was treated with 45 μL of chloroform and 30 μL of 0.1% sodium dodecyl sulfate at 30° C. for 5 minutes. The suspension was then treated with 200 μL of o-NPG (o-nitrophenyl-β-D-galactopyranoside) of 4 mg/mL at 30° C. for 10 minutes. After reaction was stopped by addition of 500 μL of 1 M sodium carbonate, absorbance at 420 nm was measured to determine the activity of β-galactosidase. The activity of β-galactosidase was calculated using a unit=1000×A420/10 (reaction time). […]

PDR5 protein = target: T1, PDR5 protein (Saccharomyces cerevisiae, UniProt P33302); experiment: Rhodamine 6G accumulation in yeast with overexpressed PDR5 (fluorescence microscope); assay type: cell-based; conditions: drug at final concentration 25 μg/mL, 2 hours, then rhodamine 6G 30 minutes
T1 construct: expressed in transfected cells; host or cells: Saccharomyces cerevisiae W303 (MAT a Δsyr/erg3::HIS3 Δpdr5::LEU2 Δsnq2::HIS3)
Protocol: (§1) The above-mentioned strain with overexpressed PDR5 and the above-mentioned host yeast were separately subjected to shaking culture at 30° C. for 12 hours in 4 mL of the minimum medium. Then a quantity of yeast corresponding to 1.0×10^6 cells was inoculated to 4 mL of the minimum medium. Enniatin B, B1, D, enniatin mixture, or FK-506 was added to the final concentration of 25 μg/mL, and after shaking culture at 30° C. for 2 hours, 15 μL of rhodamine 6G (1 mg/mL) was added followed by culture under the same conditions for 30 minutes. After culture, the culture was washed twice with 2% glucose solution in PBS (phosphate-buffered saline) and the fluorescence in yeast cells was observed under a fluorescence microscope (Nicon ECLIPSE E400, using G-2A filter).

PDR5-deleted host yeast = experiment: Rhodamine 6G accumulation in PDR5-deleted host yeast (fluorescence microscope); assay type: cell-based, Saccharomyces cerevisiae; conditions: drug at final concentration 25 μg/mL; compared with no addition of the drug
Protocol: as §1

C=CC[C@@H]1/C=C(\C)C[C@H](C)C[C@H](OC)[C@H]2O[C@@](O)(C(=O)C(=O)N3CCCC[C@H]3C(=O)O[C@H](/C(C)=C/[C@@H]3CC[C@@H](O)[C@H](OC)C3)[C@H](C)[C@@H](O)CC1=O)[C@H](C)C[C@@H]2OC [FK-506, reference compound]
activity of β-galactosidase (PDR5 transcription activity) (PDR5 gene): not different from that without addition of the drug
rhodamine 6G accumulation in yeast with overexpressed PDR5 (PDR5 protein): accumulated rhodamine 6G
rhodamine 6G accumulation in PDR5-deleted host yeast (PDR5-deleted host yeast): rhodamine 6G was accumulated in yeast cells
